# Measured values as given in PubChem BioAssay AID1347426 (Functional Genomics Laboratory (NCATS/FGL), 2020).
# The campaign covered roughly 31,000 sequences. About 1,400 (4.5%) were called active.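 How the source made its calls: active means median seed-adjusted z-score above 1 or below -1; inactive means the rest.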 The list shows a part of the results.
# Test: Novel Modifiers of Survival Motor Neuron (SMN) Protein: Gene Identification via Genome-wide siRNA Screen;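 further: luminescence tracks full-length SMN protein made from the SMN2 reporter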
# Conditions: HEK293T SMN2-luciferase reporter, siRNA knockdown, 72 h; actives lie on both sides
# Method in brief: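 Genome-wide siRNA screen (10418 genes, 3 siRNAs each, 1 pmol per well) by reverse transfection in HEK293T cells stably carrying an SMN2-luciferase reporter; luminescence after 72 hours, normalized to negative-control siRNA, log10-transformed, MAD-scored.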
row,Sequence,median seed-adjusted z-score
1,CCUUGCUCCUGUUCACAAUTT against SPRY1,inactive: 0.642
2,GAACAAUCAUUGCAUCGGATT against CPB2,inactive: -0.62
3,CAAAGUUGAUCACAGUAAATT against RHEB,inactive: -0.387
4,GGAUCGCUCGUCUCUGGUATT against KLK4,inactive: 0.437
5,GAGGUGAAAUCAAGACUCATT against P4HB,inactive: -0.0514
6,GCAGAGACACCUUGAAGUATT against GAD1,inactive: 0.101
7,GAGUUCACCCAGAUCGAAATT against CHMP6,active: -1.81
8,GGCUAACAAUUUGUCCAGUTT against SEC22B,inactive: -0.106
9,CUCCUGAUGUUGCUAGUAUTT against MLL3,inactive: -0.248
10,GCAGAACUGUAGUCUGGAATT against UQCRC1,inactive: -0.284
11,AAAUGGGUGUUAAUAUAGUTT against FABP2,inactive: 0
12,CAACAUCCGUGCUCUGAGATT against ASB10,inactive: 0
13,CCAUACCUAUGUCAGAAGATT against SLC6A15,inactive: 0.0939
14,CCGAGUCUGUCAUUCGAUUTT against TIPARP,inactive: 0.372
15,CCAGAGUUCCUAUCUCAUATT against ZNF774,inactive: -0.0834
16,GACAUUAUAGUGUCAAGAATT against SLC24A2,inactive: 0.136
17,AGAUACCAAUGGAUCAGAUTT against MAP3K7,inactive: -0.23
18,CGAUCUCACGGAUACAGCATT against TSTA3,inactive: 0.155
19,GUACUUAUCCAGAAGCGAATT against PREPL,inactive: -0.459
20,GAACUGUCCUGGAUUGUGATT against BDH2,inactive: -0.242
21,CAUAGACCACCACAAGAUATT against S100A7L2,inactive: 0.283
22,GACAAUCAGCUGACAAUUATT against CDC6,inactive: 0.0196

# An excerpt of these results, tab-delimited.
row	Sequence	median seed-adjusted z-score
1	CCUUGCUCCUGUUCACAAUTT against SPRY1	inactive: 0.642
2	GAACAAUCAUUGCAUCGGATT against CPB2	inactive: -0.62
3	CAAAGUUGAUCACAGUAAATT against RHEB	inactive: -0.387
4	GGAUCGCUCGUCUCUGGUATT against KLK4	inactive: 0.437

# Later entries:

row,Sequence,median seed-adjusted z-score
1,AGACACCACAUGUACACCATT against DPEP3,inactive: 0.95
2,CAGUCACACUUUCUGGAAATT against PNLIPRP2,inactive: -0.022
3,CACUUGCACUAGCAGCGAATT against NUBPL,inactive: 0.105
4,AGAACCAGCUGACAAUCGATT against PITPNM2,inactive: 0.275
5,GCAUUCACCAAGAUAUAAATT against ACBD5,inactive: -0.118
6,GCUUAUUACCCGCUCAAAUTT against PRDM13,inactive: 0
7,GGUGGUCAUUAGCUUUGAATT against WNT5B,inactive: 0.72
8,CCAAAAGGAUUGAUUAGAATT against IFI16,inactive: -0.0178
9,CCUUACAAGUGUUCUGAAUTT against ZNF691,inactive: 0.28
10,GCUUGUACAACAUUACUCATT against FYN,inactive: -0.0476
11,GAUGUACCUUGAUACAGUATT against IDH3A,inactive: 0.137
12,CACCUUAACUUCAUCAACATT against SCN4A,inactive: -0.681
13,GCUCAAGAGUUAGACCCUUTT against MOCS3,inactive: -0.496
14,GAAAGAACGUGUGCAAAAATT against BTN2A1,inactive: 0.302
15,GGACGACAGAUCUAUGUAATT against CASK,inactive: -0.422
16,GGAUCUCACAAAAACUCGATT against SLC25A27,inactive: 0.0916
17,CCAGAGUUAUAUAAGCAGATT against SYT9,inactive: 0.0419
18,GCCCAUCACCUCUUCAUGATT against RAMP1,inactive: -0.031
19,CGACCAUUGGAGAUGUUAATT against SCML2,inactive: -0.538
20,CCAUGUGGUUUAUCCGUGATT against ZDHHC3,inactive: 0.229
21,GGAGAUCUCUCGUCUCAAUTT against KCNH4,inactive: -0.769
22,CCAGGAUCUCUACACUGUATT against ATP6V0A2,inactive: 0.236

row,Sequence,median seed-adjusted z-score
1,GGCAGAUUAGUUUACCGAUTT against AGL,inactive: -0.385
2,CGCUGCAGGUUGUUCGAUATT against P4HTM,inactive: -0.257
3,GAACAAUGAGUAUAUCCUATT against PPP2R5B,inactive: 0.237
4,CACUGGUACUCUUUCUAAUTT against NQO2,inactive: -0.0723
5,GAACUAUCAGAGCAGUUUUTT against LONP2,active: 1.52
6,GACUUAGGAUGGAACCCUUTT against ZNF408,inactive: 0.00381
7,CGCUCUAAAUAAUUGCAAUTT against SLC9A3R2,inactive: 0.165
8,GGACAACCGUUGCCUCAGATT against DLC1,inactive: -0.0296
9,CCCUUUUGCCUGUCAAUGATT against PLA1A,inactive: 0.197
10,CCCUCGGAAGCACAAGUUUTT against TEF,inactive: 0
11,GGAGCUACAACCCACAGUATT against PLA2G5,inactive: 0.0601
12,CGGUACUGUUGUUGAAUCATT against ZNF385B,inactive: 0.446
13,CGAGCACAAGGCAACAAGATT against GNL3L,inactive: 0.568
14,GGUGACUACUUGUAUCUGATT against NOX5,inactive: 0.178
15,GGCUGGAAAAUUAUCCAUATT against TM9SF1,inactive: 0.14
16,GGACCGACAUUUGACUAUUTT against B4GALT3,inactive: -0.138
17,GGAUGUGAAGUGUGCUAAUTT against GRM8,inactive: 0.129
18,GGAUUUGGAUUCGUUCAGCTT against SOX11,inactive: 0.02
19,CCUCAGAGCUCAAUCAUCUTT against CD5,inactive: 0.0416
20,CAGUGAAGAUAAAAUUCAATT against CRIP3,active: 1.7
21,GAGGCAAAAUUAUACGGCATT against GRPEL1,inactive: 0
22,GGAGAGAGCUCUCACAUCUTT against PPT1,inactive: 0.727

row,Sequence,median seed-adjusted z-score
1,CCUCCGGAACAAGAACUAATT against ZNF397,inactive: -0.107
2,GGUCACCACUUGCAAGCUATT against ANG,inactive: -0.481
3,CCAACAACAUUUCAGACAATT against TBX3,inactive: 0
4,CAAGUGUCUAUGUAACGAATT against FBN2,inactive: 0.373
5,GCGUGGACUUUGAUAUUGATT against EDEM2,inactive: 0.36
6,GGAUUGAAGAGAAGGCUAATT against ZDHHC6,inactive: 0.199
7,GGAAUUUGCCUGCUAAUCATT against SEC61A1,inactive: 0.312
8,CCUUAGCCUGUUCUAUUCATT against TIMP2,inactive: 0.0444
9,GGACAUUCACAGUUUCGAATT against ATP9B,inactive: 0
10,CAGACAGUAUGUUUACGAUTT against RNASEH1,inactive: -0.0205
11,GCAUUGCAAGAGUGGAGAATT against KCNK10,inactive: 0.239
12,GAAUCCCGCUGACAAACCATT against MINK1,inactive: -0.522
13,CCACACCUACUGAGAUUAUTT against MORF4L2,inactive: 0.389
14,GCAGAUAAGAUCAAGAUCATT against SRPK3,inactive: -0.643
15,GAACCGGUACAAAACCAUATT against PTPN5,inactive: 0.22
16,CAACUAUCCACAACUCGAATT against DNAJC13,inactive: -0.12
17,CACUAGAUCGCGAUAAUAATT against DDB1,inactive: 0.231
18,CAAUAACAAUUUCGGACAATT against TMPRSS11A,inactive: 0
19,GGCUGUACGUGAAUAGUGUTT against TIAM1,inactive: 0.13
20,GGCUGUUUCGGGACAAGUATT against SRPR,inactive: 0.242
21,GGAUACAGAGACCAAUUUATT against DONSON,inactive: -0.882
22,GCAUAACAAAUACCUUAGATT against ERCC5,inactive: -0.0811

# 4 entries picked at random from the list so far:
row,Sequence,median seed-adjusted z-score
7,GGAAUUUGCCUGCUAAUCATT against SEC61A1,inactive: 0.312
7,GGUGGUCAUUAGCUUUGAATT against WNT5B,inactive: 0.72
20,CAGUGAAGAUAAAAUUCAATT against CRIP3,active: 1.7
10,GCAGAACUGUAGUCUGGAATT against UQCRC1,inactive: -0.284

# Remaining list, next part.

row,Sequence,median seed-adjusted z-score
1,GAGCCUUUCGGAGCAGUUATT against ZNF740,inactive: -0.914
2,CGAACGACAGUUCCACAAATT against PDE6A,active: 1.25
3,GGCUCGUGGGAUGAACAAATT against OSBP2,inactive: -0.568
4,GGCACUUAUGUAUAAACCATT against ZNF793,inactive: 0.448
5,GCAUCGAUUUUCACUAUUUTT against PTPRM,inactive: 0
6,AAUUGAAGAUGGAAGUUGATT against GNGT1,inactive: -0.0382
7,CAAUCACCGCUGUGGUAAATT against UCP1,inactive: -0.0744
8,GCAGGAGUUUGAUAAGCUUTT against TRIM35,inactive: -0.0463
9,CCGUAGGAUUUACAGAAUATT against MOBKL3,inactive: 0.575
10,GCCUGUUCCAAACCCAUUATT against FHL5,inactive: 0.0859
11,GCAUUGCUAUGGAGAUAGATT against SIN3A,inactive: -0.384
12,CAUUAGCAAUUUCAGCAAATT against UEVLD,inactive: -0.0682
13,CGUGAUCCUUUACACGUGATT against RTN4IP1,inactive: -0.00582
14,GGAUAGCUGGUAUUCGAAATT against KLHL7,inactive: -0.567
15,CUGUAAAAGUGGGAAUGAATT against PEPD,inactive: -0.00401
16,CACGGCAAGUGGAAAGAUATT against SERPINA2,inactive: 0.285
17,GGAACAAGGUCUAAUUUGUTT against CAV3,inactive: 0
18,GAUCAUUGCUGGGAAUCUATT against GPR52,active: -1.17
19,UGCGAUUACUGAUCCGCAATT against SAG,inactive: 0
20,CUGCAUUUGUGGUAGCUGUTT against NDUFB3,inactive: -0.00982
